# Laboratory results taken from ChEMBL document CHEMBL1144888, “Synthesis, structure-activity relationship, and evaluation of SR141716 analogues: development of central cannabinoid receptor ligands with lower lipophilicity” (J Med Chem, 2003).
# The chains behind the UniProt entries cited, without tags or fusion partners.
# UniProt P20272, whole entry: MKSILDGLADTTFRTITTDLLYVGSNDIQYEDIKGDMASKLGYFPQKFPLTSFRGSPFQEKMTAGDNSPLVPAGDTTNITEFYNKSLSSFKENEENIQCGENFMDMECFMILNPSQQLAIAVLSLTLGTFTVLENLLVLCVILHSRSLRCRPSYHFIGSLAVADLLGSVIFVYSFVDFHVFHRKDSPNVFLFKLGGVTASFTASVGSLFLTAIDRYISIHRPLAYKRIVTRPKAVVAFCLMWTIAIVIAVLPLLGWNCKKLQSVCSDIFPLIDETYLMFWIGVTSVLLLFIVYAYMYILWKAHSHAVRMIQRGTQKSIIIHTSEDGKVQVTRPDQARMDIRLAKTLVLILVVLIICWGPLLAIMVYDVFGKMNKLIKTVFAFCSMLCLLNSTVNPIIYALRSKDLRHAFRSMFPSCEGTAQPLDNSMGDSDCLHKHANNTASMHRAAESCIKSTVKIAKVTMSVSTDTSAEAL
# Target: Cannabinoid receptor 1 (Rattus norvegicus, UniProt P20272)
compound,measurement,value
Cc1c(C(=O)NN2CCCCC2)nn(-c2ccc(Cl)cc2Cl)c1-c1ccc(I)cc1,Ki,0.6 nM
